According to patent US10799496B2, “Naphthylenyl compounds for long-acting injectable compositions and related methods” (priority 2018, dated 2020):
This continues a long series; more values of the same kind are listed elsewhere.

Experiment: Pharmacokinetic evaluation of the release of naltrexone from Compound 2 in rats following a single intramuscular injection
Type: in vivo, Sprague-Dawley rats
Settings: rat plasma
Description: Five male Sprague-Dawley rats were allowed to acclimate to the test facility for at least 2 days prior to study start. For dose administration of Compound 2, the rats were lightly anesthetized with isofluorane, the hind leg shaved and dosed intramuscularly with the formulation using a 21G needle. […] Serial whole blood samples were collected via sublingual route (˜150 μL) at 1, 8, and 24 hours post dose, and at 2, 4, 7, 10, 14, 17, 21, 24, 28, 35, 42, 49, 56, 63, 71, 78, 85, and 91 days post dose.
Blood samples were placed into K2EDTA blood collection tubes. After collection, blood samples were maintained chilled (on wet ice) and centrifuged (11,500 rpm for 2 minutes at 5 degrees C.) within 30 minutes to obtain plasma. Plasma was transferred into a single vial, 1.5 mL screw cap micro-centrifuge tube with inserts and stored at −80 degrees C. until analysis.
The formulation dosed was a crystalline suspension of Compound 2 (46 milligrams of Compound 2 dosed per animal), wherein the crystalline test article was characterized with a particle size distribution of Dv10=12.9 μm, Dv50=31.5 μm, and Dv90=63.1 μm (as measured via laser diffraction). The formulation was prepared the day before dosing. Details of the formulation dosed are described in Table D below.
Results of the above intramuscular rat study of Compound 2 are shown in Tables E and F. In particular, Table E reports the average blood plasma levels of naltrexone in rat (n=5) over 91 days following intramuscular administration.

Measured: Compound 2 conc.

O=C(Cc1ccc2cc(CC(=O)Oc3ccc4c5c3O[C@H]3C(=O)CC[C@@]6(O)[C@@H](C4)N(CC4CC4)CC[C@]536)ccc2c1)Oc1ccc2c3c1O[C@H]1C(=O)CC[C@@]4(O)[C@@H](C2)N(CC2CC2)CC[C@]314 [Compound 2, bis((4R,4aS,7aR,12bS)-3-(cyclopropylmethyl)-4a-hydroxy-7-oxo-2,3,4,4a,5,6,7,7a-octahydro-1H-4,12-methanobenzofuro[3,2-e]isoquinolin-9-yl) 2,2′-(naphthalene-2,6-diyl)diacetate]
<0.1 ng/mL: single i.m. dose of Compound 2, day 4, Rat 1 | single i.m. dose of Compound 2, day 4, Rat 2 | single i.m. dose of Compound 2, day 4, Rat 3 | single i.m. dose of Compound 2, day 4, Rat 4 | single i.m. dose of Compound 2, day 4, Rat 5
